Results as given in the supplement of paper PMC10849652.
The other results are listed elsewhere or left out.

By UniProt entry, the sequences of proteins in these tests, tags left out. Where a name states a change or a piece, a line headed by the entry shows the natural chain unless it says otherwise.
UniProt Q969M3: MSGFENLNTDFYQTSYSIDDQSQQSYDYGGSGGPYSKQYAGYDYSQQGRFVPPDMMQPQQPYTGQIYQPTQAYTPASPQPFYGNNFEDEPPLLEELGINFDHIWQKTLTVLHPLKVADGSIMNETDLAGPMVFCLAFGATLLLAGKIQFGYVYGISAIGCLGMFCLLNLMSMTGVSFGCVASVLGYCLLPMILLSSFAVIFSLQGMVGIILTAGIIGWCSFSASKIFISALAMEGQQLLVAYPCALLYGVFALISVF
UniProt Q9HAV4: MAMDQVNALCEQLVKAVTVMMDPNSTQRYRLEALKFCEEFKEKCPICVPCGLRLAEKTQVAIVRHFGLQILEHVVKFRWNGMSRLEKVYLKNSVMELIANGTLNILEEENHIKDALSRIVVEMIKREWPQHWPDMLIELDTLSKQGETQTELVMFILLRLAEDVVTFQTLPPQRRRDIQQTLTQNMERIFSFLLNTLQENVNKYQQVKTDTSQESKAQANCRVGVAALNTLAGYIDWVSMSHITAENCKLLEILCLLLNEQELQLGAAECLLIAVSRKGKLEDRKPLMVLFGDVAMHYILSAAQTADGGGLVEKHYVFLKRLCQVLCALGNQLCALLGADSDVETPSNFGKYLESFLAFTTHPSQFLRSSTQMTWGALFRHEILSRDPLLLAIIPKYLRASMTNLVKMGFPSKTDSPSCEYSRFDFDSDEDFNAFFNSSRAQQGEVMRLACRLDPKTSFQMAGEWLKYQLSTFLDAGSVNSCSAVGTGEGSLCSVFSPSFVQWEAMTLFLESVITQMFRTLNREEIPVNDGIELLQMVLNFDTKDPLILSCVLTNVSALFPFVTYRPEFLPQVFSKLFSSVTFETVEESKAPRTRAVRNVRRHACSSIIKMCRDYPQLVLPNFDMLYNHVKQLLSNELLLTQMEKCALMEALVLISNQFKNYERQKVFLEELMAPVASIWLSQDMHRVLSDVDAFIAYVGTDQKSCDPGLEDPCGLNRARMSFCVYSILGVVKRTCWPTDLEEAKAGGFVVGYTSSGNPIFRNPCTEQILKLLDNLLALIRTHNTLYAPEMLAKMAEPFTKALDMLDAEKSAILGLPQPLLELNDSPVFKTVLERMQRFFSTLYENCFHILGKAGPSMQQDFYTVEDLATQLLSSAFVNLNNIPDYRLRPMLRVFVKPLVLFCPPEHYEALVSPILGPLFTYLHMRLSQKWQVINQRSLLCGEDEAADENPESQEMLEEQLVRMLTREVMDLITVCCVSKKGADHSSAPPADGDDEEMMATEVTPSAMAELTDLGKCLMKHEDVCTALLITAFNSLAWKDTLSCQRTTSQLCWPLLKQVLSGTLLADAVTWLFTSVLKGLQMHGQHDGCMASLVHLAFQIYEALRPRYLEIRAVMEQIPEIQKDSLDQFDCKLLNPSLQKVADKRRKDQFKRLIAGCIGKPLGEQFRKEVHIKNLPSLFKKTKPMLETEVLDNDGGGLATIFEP
UniProt Q9NQW7: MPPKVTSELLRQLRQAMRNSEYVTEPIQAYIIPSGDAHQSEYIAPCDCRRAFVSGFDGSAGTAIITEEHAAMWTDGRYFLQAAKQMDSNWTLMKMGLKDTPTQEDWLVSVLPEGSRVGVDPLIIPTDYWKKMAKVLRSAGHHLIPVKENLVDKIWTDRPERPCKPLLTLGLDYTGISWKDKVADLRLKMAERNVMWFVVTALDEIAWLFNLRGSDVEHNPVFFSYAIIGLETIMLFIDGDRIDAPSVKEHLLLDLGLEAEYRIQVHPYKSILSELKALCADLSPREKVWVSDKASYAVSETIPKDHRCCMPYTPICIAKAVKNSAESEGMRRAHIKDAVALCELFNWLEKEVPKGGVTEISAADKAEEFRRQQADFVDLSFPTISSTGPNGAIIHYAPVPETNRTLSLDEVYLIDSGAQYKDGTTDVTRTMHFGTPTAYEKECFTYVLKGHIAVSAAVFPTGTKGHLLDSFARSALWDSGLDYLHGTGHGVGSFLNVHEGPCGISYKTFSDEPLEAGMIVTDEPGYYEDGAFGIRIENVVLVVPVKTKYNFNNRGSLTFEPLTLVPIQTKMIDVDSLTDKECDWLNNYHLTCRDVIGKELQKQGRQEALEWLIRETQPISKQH
UniProt O75362: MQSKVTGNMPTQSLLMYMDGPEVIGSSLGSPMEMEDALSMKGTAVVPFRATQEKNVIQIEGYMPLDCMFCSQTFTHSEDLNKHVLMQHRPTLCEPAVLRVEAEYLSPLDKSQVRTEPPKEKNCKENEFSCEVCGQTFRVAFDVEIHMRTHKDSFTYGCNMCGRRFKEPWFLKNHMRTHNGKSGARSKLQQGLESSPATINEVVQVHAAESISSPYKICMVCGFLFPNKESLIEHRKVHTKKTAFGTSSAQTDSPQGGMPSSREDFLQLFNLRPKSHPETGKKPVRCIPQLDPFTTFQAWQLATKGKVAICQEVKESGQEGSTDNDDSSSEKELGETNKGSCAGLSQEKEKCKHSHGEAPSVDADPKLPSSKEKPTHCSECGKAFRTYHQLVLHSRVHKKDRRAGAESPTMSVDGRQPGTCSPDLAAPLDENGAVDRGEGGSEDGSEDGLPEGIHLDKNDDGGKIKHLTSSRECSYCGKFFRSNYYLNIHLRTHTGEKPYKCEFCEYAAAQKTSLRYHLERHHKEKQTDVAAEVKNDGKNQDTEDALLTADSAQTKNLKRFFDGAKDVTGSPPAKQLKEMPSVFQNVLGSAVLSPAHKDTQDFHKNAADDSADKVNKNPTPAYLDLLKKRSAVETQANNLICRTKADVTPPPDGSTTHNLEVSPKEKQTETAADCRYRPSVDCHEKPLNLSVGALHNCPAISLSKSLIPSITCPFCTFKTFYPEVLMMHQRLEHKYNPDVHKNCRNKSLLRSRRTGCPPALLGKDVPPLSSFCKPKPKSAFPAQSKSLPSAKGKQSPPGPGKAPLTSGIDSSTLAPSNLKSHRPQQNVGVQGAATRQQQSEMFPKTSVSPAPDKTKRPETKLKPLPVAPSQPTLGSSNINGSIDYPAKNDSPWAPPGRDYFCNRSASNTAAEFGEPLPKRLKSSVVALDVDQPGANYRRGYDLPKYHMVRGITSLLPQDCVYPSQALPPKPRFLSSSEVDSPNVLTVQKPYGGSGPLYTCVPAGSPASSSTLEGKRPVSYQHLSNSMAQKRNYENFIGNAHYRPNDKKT
UniProt P16989, whole entry, looked up: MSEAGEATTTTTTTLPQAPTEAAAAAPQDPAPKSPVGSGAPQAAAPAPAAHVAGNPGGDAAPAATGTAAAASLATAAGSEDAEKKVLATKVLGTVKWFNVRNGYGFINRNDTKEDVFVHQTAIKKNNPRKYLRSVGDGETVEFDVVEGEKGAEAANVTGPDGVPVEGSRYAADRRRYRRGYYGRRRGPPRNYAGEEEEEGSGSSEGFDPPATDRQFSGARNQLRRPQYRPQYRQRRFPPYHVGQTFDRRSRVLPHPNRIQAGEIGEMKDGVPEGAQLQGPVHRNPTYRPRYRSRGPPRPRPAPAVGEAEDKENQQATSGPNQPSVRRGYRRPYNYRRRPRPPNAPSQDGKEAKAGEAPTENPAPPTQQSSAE
UniProt O95159: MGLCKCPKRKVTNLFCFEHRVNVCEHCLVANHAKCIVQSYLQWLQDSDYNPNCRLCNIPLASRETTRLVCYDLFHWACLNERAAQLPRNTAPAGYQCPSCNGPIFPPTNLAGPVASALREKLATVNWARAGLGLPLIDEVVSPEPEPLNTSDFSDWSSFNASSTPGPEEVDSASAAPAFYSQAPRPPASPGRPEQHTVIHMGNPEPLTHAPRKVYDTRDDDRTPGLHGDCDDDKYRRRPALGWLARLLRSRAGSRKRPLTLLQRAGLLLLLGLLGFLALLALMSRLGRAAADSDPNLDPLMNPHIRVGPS
UniProt P13010: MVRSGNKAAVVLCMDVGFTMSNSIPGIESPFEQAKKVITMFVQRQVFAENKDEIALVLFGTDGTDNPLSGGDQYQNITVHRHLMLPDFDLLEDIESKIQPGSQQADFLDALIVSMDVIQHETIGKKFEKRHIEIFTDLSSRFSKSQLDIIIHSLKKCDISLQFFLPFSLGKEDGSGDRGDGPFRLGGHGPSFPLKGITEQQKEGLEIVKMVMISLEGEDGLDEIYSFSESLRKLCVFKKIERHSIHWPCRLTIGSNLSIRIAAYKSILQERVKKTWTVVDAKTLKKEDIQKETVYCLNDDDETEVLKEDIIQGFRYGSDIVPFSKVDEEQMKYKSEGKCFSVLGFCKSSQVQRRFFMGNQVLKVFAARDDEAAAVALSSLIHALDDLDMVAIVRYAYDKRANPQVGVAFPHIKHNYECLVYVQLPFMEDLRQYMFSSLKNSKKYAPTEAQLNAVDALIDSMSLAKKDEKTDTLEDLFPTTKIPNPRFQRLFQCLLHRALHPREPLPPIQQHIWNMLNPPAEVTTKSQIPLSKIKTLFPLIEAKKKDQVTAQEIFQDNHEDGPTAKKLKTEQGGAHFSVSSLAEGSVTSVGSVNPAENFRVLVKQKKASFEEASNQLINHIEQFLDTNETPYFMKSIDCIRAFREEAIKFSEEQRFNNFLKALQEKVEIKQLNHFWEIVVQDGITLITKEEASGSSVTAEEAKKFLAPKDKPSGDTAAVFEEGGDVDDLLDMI
UniProt P54577: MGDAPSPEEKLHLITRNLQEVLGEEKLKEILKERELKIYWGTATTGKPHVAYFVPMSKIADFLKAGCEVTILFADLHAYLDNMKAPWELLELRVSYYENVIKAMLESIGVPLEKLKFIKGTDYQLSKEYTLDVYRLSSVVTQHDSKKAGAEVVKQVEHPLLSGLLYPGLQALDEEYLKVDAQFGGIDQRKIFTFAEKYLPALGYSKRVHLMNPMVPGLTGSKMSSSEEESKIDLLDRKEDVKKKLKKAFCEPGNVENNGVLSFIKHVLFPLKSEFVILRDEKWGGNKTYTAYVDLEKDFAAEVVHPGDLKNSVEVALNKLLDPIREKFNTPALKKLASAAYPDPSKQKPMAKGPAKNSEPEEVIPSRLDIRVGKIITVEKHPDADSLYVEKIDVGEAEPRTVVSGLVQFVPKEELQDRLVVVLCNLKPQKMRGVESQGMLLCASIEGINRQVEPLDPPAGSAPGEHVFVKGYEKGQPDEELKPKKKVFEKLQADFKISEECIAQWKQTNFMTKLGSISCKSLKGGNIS
UniProt P12956: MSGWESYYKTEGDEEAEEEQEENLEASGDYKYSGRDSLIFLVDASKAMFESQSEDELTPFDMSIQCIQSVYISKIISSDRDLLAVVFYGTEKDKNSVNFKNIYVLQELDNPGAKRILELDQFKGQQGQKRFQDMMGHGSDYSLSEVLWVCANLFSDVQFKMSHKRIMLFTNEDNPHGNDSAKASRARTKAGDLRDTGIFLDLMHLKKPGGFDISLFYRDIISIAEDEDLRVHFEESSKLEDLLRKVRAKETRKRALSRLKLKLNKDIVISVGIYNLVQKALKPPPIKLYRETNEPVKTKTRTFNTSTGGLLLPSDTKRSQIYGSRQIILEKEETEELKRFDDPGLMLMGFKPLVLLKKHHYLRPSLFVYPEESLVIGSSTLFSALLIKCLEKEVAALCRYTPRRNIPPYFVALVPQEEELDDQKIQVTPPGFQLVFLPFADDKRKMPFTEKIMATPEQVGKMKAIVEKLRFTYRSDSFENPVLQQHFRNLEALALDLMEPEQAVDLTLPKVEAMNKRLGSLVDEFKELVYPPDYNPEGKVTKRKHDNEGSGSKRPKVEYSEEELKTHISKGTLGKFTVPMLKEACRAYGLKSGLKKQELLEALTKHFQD
UniProt P25490, whole entry, looked up: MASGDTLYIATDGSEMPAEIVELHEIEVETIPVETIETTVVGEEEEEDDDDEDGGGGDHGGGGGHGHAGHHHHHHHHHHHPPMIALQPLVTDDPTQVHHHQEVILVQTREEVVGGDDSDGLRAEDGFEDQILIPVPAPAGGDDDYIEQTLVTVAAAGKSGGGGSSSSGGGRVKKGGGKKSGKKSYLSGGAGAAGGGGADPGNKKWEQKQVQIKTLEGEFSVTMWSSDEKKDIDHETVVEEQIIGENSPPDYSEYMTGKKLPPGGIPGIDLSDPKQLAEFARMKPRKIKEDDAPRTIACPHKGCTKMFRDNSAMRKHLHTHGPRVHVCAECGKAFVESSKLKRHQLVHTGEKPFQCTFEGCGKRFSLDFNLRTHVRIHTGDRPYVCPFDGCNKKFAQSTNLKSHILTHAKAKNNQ
UniProt Q8WV99: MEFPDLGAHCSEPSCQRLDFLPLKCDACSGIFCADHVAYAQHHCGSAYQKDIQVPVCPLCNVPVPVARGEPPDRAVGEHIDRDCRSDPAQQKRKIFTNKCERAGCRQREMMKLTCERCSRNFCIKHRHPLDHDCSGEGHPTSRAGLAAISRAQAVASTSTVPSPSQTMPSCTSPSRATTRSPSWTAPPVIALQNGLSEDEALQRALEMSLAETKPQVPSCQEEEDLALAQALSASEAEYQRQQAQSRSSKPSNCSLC
UniProt P31946: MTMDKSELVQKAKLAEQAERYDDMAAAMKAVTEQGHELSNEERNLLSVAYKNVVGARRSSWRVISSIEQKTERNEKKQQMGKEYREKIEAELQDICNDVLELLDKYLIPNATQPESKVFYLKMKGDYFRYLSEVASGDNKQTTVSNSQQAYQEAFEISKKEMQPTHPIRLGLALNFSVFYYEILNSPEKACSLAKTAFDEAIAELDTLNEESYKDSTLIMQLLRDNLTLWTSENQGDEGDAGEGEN

Compound: CCCS(=O)(=O)Nc1ccc(F)c(C(=O)c2c[nH]c3ncc(Cl)cc23)c1F
Test: log2 fold change, soluble protein after heating vs DMSO (PISA); higher = thermal stabilisation; K562 cells, 10 uM, 30 min; active = over 0.2 and 3.5 SD of the protein, either way, in both replicates (recomputed)
Summary of the method: (§1)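 K562 cells at 2×10^6 cells/mL were exposed to 10 μM compound for 30 min, then aliquots were heated for 3 min across 48°C-58°C, pooled, and extracted in PBS containing 0.5% NP-40 at 4°C. The supernatant after 21,000xg for 90 min was taken as soluble protein and measured by TMTpro 16plex LC-MS/MS with channel sums equalised. Thermal stability is reported relative to control samples, with values from duplicates. Fold changes are given on a log2 scale.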

Target	log2 fold change
ZC3HC1 (UniProt Q86WB0)	inactive: 0.189
ZC3H18 (UniProt Q86VM9)	inactive: -0.019
YOD1 (UniProt Q5VVQ6)	inactive: 0.033
YIPF5 isoform 3 (UniProt Q969M3)	inactive: -0.096
YIPF6 (UniProt Q96EC8)	inactive: 0.004
XPO5 (UniProt Q9HAV4)	inactive: 0.056
YWHAZ (UniProt P63104)	active: 0.228
XPO6 (UniProt Q96QU8)	inactive: 0.13
YLPM1 (UniProt P49750)	inactive: 0.047
ZDHHC5 (UniProt Q9C0B5)	inactive: -0.009
XPNPEP1 isoform 3 (UniProt Q9NQW7)	inactive: 0.021
ZNF217 (UniProt O75362)	active: 0.688
ZFAND6 (UniProt Q6FIF0)	inactive: 0.002
ZC3H8 (UniProt Q8N5P1)	inactive: -0.138
YBX3 isoform 2 (UniProt P16989)	inactive: -0.336

Compound: CCCc1cc(C)[nH]c(=O)c1CNC(=O)c1cc(-c2ccnc(N3CCN(C)CC3)c2)cc2c1cnn2C(C)C
Test: as above
Summary of the method: as §1

Target	log2 fold change
YJU2 (UniProt Q9BW85)	inactive: -0.068
ZFAND5 (UniProt O76080)	inactive: -0.038
ZNF24 (UniProt P17028)	inactive: 0.022
ZFPL1 (UniProt O95159)	inactive: -0.05
ZMYM3 (UniProt Q14202)	inactive: 0.067
XRCC5 (UniProt P13010)	inactive: 0.109
ZMAT2 (UniProt Q96NC0)	inactive: -0.044
YARS (UniProt P54577)	inactive: 0.042
YIPF4 (UniProt Q9BSR8)	inactive: -0.036
ZFP91 (UniProt Q96JP5)	inactive: 0.074
XRCC6 (UniProt P12956)	inactive: 0.025
YY1 (UniProt P25490)	inactive: -0.006
ZFYVE9 (UniProt O95405)	inactive: -0.156
XPNPEP3 (UniProt Q9NQH7)	inactive: 0.013
ZFAND2B (UniProt Q8WV99)	inactive: -0.038
ZDHHC17 (UniProt Q8IUH5)	inactive: -0.061
YWHAB (UniProt P31946)	inactive: -0.031
XPO1 (UniProt O14980)	inactive: -0.011
ZNF143 (UniProt P52747)	inactive: -0.006
YBX1 (UniProt P67809)	inactive: 0.055

Target	log2 fold change
ZER1 (UniProt Q7Z7L7)	inactive: -0.125
ZDHHC14 (UniProt Q8IZN3)	inactive: -0.027
YWHAQ (UniProt P27348)	inactive: 0.241
YAE1 (UniProt Q9NRH1)	inactive: -0.083
ZC3HC1 (UniProt Q86WB0)	inactive: 0.029
ZC3H18 (UniProt Q86VM9)	inactive: -0.011
YOD1 (UniProt Q5VVQ6)	inactive: -0.017
YIPF5 isoform 3 (UniProt Q969M3)	inactive: -0.005
YIPF6 (UniProt Q96EC8)	inactive: -0.067
XPO5 (UniProt Q9HAV4)	inactive: 0.014
YWHAZ (UniProt P63104)	inactive: 0.056
XPO6 (UniProt Q96QU8)	inactive: 0.028
YLPM1 (UniProt P49750)	inactive: 0.083
ZDHHC5 (UniProt Q9C0B5)	inactive: 0.095
XPNPEP1 isoform 3 (UniProt Q9NQW7)	inactive: -0.01
ZNF217 (UniProt O75362)	inactive: 0.003
ZFAND6 (UniProt Q6FIF0)	inactive: -0.051
ZC3H8 (UniProt Q8N5P1)	inactive: -0.027
YBX3 isoform 2 (UniProt P16989)	inactive: 0.058
